Assay results taken from PMC4766407.
No constants are given. Whether binding was seen depends on the method and setting. Binding seen in cells or lysates may run through a third protein. Some binding calls cover weakened binding; strength is not graded here.

Amino acid sequences for entries named in this document (tags omitted).
UniProt O75925: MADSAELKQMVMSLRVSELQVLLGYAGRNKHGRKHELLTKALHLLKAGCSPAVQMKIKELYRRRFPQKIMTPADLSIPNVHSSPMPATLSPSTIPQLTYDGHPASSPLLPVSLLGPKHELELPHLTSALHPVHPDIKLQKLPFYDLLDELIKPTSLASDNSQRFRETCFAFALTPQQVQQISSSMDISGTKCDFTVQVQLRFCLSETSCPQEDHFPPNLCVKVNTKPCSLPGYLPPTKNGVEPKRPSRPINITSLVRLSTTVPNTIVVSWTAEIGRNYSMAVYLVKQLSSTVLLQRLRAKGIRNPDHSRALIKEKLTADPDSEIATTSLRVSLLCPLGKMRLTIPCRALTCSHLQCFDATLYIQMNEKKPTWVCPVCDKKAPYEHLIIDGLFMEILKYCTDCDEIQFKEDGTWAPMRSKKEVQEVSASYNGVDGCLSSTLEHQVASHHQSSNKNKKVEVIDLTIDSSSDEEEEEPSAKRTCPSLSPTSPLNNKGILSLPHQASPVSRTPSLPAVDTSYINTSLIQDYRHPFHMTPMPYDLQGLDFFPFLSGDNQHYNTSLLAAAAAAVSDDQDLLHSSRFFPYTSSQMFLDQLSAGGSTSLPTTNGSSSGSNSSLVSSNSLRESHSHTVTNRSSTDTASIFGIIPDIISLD

How the values were obtained:
[1] = target: T1, phosphorylated signal transducer and activator of transcription-6 (p-STAT6) (human (endogenous in HFL-1 and BEAS-2B)) (UniProt P42226); assay: co-IP; lysate of BEAS-2B cells with or without IL-4 (20 ng/mL, 24 h); 1 ug anti-p-STAT6 or anti-PIAS1 antibody overnight at 4 C, anti-IgG as negative control; Protein-A/G agarose 4 h at 4 C; five washes with cold PBS; Western blotting
T1 sequence (chain, phosphorylated (p-STAT6); the site is not printed): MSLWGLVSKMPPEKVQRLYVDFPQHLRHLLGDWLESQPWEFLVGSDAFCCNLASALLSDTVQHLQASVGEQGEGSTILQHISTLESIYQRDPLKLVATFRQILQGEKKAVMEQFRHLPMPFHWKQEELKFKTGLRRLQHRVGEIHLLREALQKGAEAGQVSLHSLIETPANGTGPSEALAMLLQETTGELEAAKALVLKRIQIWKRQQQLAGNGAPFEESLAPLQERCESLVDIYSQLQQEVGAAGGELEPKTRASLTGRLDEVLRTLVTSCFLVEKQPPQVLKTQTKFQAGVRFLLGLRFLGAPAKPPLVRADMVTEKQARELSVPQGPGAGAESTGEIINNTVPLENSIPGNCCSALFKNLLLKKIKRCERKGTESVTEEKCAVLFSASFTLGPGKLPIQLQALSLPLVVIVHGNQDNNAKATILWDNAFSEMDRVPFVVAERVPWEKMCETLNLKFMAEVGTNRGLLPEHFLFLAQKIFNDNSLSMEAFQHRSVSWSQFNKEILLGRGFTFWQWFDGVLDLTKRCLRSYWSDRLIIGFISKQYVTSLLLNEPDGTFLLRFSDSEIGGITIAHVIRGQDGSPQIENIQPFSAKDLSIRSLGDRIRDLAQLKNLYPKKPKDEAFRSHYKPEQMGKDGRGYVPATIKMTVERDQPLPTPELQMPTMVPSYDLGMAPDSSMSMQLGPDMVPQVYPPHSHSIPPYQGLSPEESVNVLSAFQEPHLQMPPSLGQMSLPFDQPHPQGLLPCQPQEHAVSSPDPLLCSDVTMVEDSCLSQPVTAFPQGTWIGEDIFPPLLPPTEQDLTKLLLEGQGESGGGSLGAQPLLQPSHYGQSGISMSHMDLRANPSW

[2] = target: T1, phosphorylated signal transducer and activator of transcription-6 (p-STAT6) (human (endogenous in HFL-1 and BEAS-2B)); assay: co-IP; lysate of HFL-1 cells with or without IL-4 (20 ng/mL, 24 h); 1 ug anti-p-STAT6 or anti-PIAS1 antibody overnight at 4 C, anti-IgG as negative control; Protein-A/G agarose 4 h at 4 C; five washes with cold PBS; Western blotting

binding [1]: no binding (condition: in BEAS-2B cells)
binding [2]: binds
Substance: protein inhibitor of activated STAT 1 (PIAS1) (from UniProt O75925 1-651)
